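Assay on Mycobacterium tuberculosis, filed only as a heat shock assay from Cornell; the read-out is not stated. The concentration is filed as 10 mM, unlikely as a test dose, so the dose is not known. Higher reads as stronger inhibition (inferred: compounds with an IC50 in retests scored well above the rest). About 69,000 compounds were tested under these conditions; 1.4% (about 930) showed 50% or more at least once.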

Each number is a percent effect as filed. How 0% and 100% were set is not recorded. Most values in the screen are low, and negative values occur. This is an unselected part of the compounds tested.

structure	percent effect
O=C(O)C(F)(F)F.[H][C@@]12CN(Cc3ccoc3)CCO[C@]1([H])CN(C(=O)c1sccc1C)C2	-4.487
O=C(CN1CCN(C(=O)c2ccccc2)CC1)Nc1ncc(Br)cc1Br	16.15
O=C(O)C(F)(F)F.O=C(O)C(F)(F)F.[H][C@]12CCCC(N3CCN(c4ncccn4)CC3)[C@@]1([H])CN(C(C)=O)C2 (some centres not stated)	-25.02
CCn1cc(S(=O)(=O)NC2(CN3CCOCC3)CCCCC2)c(C)n1	19.67
Cn1cc(CN2CCCC(c3nccnc3-c3cccc(F)c3)C2)cn1 (configuration not stated)	-34.46
CCOCC(O)CN1CCN(C(=O)c2ccc(OC)cc2)CC1 (configuration not stated)	-5.699
CN(C)C1CCCN(C(=O)CCc2csc(N)n2)CC1 (configuration not stated)	21.85
CCn1cnnc1CN(C)C(=O)C1CCC(=O)N(CC2CCCCC2)C1 (configuration not stated)	-2.199
CC(c1cccc(Cl)c1)N1CCN(S(C)(=O)=O)CC1 (configuration not stated)	-9.311
COc1ncc(-c2c(C#N)c(N)nc3c2CCc2[nH]ccc2-3)cn1	0.7697
COc1nn(C)cc1C(=O)N1CCC(C)CC1	-28.08
O=C(O)C(F)(F)F.[H][C@@]12CCC(=O)N(CCOC)[C@]1([H])CCN2Cc1ccc(C)s1	-9.542
c1cc(-c2cnccn2)cc(-c2ccn(CCCN3CCCCC3)n2)c1	15.88
Cc1nnsc1C(=O)NCc1nn(C2CCCC2)c2c1CCCC2	2.951
Cc1ccc(C(=O)N(C)Cc2ccc(Br)o2)c(=O)[nH]1	19.19
CC(C)c1noc(C(C)N2CCN(Cc3noc(C(C)(C)C)n3)CC2)n1 (configuration not stated)	-28.67
O=C(NCc1ccco1)c1ccc(N2CCOCC2)cc1	1.384
COc1ccc(CCNC2CCCN(c3ccc(C)nn3)C2)cc1 (configuration not stated)	4.263
CNC(=O)c1cccc(NC(=O)NCc2ccc(SC)cc2)c1C	25.68
Cc1ccccc1C1CCN(CCn2cc(-c3nccn3C)nn2)C1 (configuration not stated)	32.84
O=C(O)[C@H]1CCCN1CCOc1cccc(Cl)c1	2.375
CC(c1cccc(Cl)c1)N(C)CCS(=O)(=O)CCC(N)=O (configuration not stated)	31.14
O=C(NCC1Cn2nnc(-c3cccc(F)c3)c2CO1)c1ccc[nH]1 (configuration not stated)	-24.46
CCc1ccccc1C(=O)N1C[C@@H](CN2CCOCC2)[C@@H](CO)C1	-11.81
CNS(=O)(=O)c1cc(C(=O)NC2CCOc3ccccc32)cc(C)c1C (configuration not stated)	-13.72
CCc1nnc(C(C)N2CCc3cncnc3C2)o1 (configuration not stated)	-28.28
COC(=O)[C@@H](Nc1nc(C2CCCC2)nc2c1cnn2C)[C@@H](C)O	-0.925
CO[C@@H]1CCN(c2ncccn2)[C@H]1Cc1ccccc1	-36.19
O=C(NCC(=O)N1CCc2ccccc2C1)c1ccoc1	4.922
Cn1cc(NS(=O)(=O)c2ccc(C(F)(F)F)cc2)ccc1=O	-7.896
Cc1noc(C)c1CC(=O)N1CCc2sccc2C1	-7.104
COc1c(CNCC(O)COc2ccc3c(c2)OCO3)c(C)nn1C (configuration not stated)	-4.548
O=C(CCN1CCOC1=O)N(Cc1ccncc1)CC1CCCO1 (configuration not stated)	-14.33
COc1nc2ccccc2cc1C1CC(=O)Nc2n[nH]c(C3CCC3)c21 (configuration not stated)	4.233
CCc1ncc(C(=O)N(CCOC)Cc2nccs2)cn1	3.881
CCS(=O)(=O)N1CCOC2(CCCN(c3ccc(C)nn3)C2)C1.O=C(O)C(F)(F)F (configuration not stated)	-3.38
c1ccc(Oc2ccc(CNCC3CNc4ccnn4C3)cn2)cc1 (configuration not stated)	-9.951
CCC(CO)N(C/C(C)=C/c1ccco1)Cc1ccccn1 (configuration not stated)	10.11
COCc1cc(N(C)Cc2cc(C(C)(C)C)n[nH]2)ncn1	-179.4
Cc1ncsc1CCC(=O)NC1CCN(c2ncccc2C#N)CC1	8.212
Cc1cnn(CC2CN(Cc3nnc(-c4ccccc4)o3)CCO2)c1 (configuration not stated)	-26.03
Cc1ccsc1[C@@H]1CCN(C(=O)CCOc2ccccc2)C[C@H]1O	-30.15
C[C@H](O)c1cnn(-c2ccccc2)c1	-17.61
NC(=O)C1CCN(C(=O)NCc2cccnc2OC2CCCC2)C1 (configuration not stated)	-17.36
c1csc(N2CCN(c3ncnc4sccc34)CC2)n1	27.04
CN(CCN1CCN(c2ccccc2)CC1)C(=O)Nc1ccccn1	-33.64
Cc1cccc(NC(=O)N2CCC3(CC(=O)N(c4ccsc4)C3)C2)c1 (configuration not stated)	-3.171
c1ccc(-n2nnnc2CNCc2ccc3c(c2)OCCO3)cc1	-28.7
N#Cc1ccc(CN2CCNC(=O)C2c2cccs2)cc1 (configuration not stated)	5.65
CCc1nc(CN2CCCN(C(=O)C(CC)OC)CC2)cs1 (configuration not stated)	-11.72
CS(=O)(=O)CCN(CCc1cccc(F)c1)C1CC1	-18.13

Source: ChEMBL document CHEMBL3988442, “University of Dundee, Small-Polar-MMV Screening Library” (2021).